Laboratory results from PubChem BioAssay AID540276 (National Center for Advancing Translational Sciences (NCATS), 2011).
Screen size: about 300,000 compounds; about 5,400 (1.8%) were called active. Inconclusive results, whose numbers are uncertain, are shown with a selection of clear calls. The call rests on the fitted dose curve; tested in HEK293 cells. Potencies of inconclusive entries are doubtful fits and often do not repeat.

assay: qHTS for inhibitors of binding or entry into cells for Marburg Virus; details: Marburg virus pseudotyped entry inhibition, cell reporter; activity change, negative = inhibition: at 37.8 µM (top of the series) unless noted
On the % scale 0 is the no-effect control and ±100 the full control effect; potency means the concentration at half of the fitted maximal effect.

Structure (SMILES)	Potency	activity change, negative = inhibition
Cc1c(C(=O)NCc2ccoc2)oc2ccc3c(c12)C(=O)CC(C)(C)O3	inconclusive: 35.5 µM [inhibitor, single point]	–
CC1=CC2=NC(=O)/C(=C\c3cccn3CCOc3cccc(C)c3)C(=N)N2O1	–	inactive: 3.12%
O=C(COC(=O)c1ccc2[nH]c3c(c2c1)CCCC3)Nc1ccccc1Cl	–	inactive: -11.4% [at 46.1 µM]
COc1cc(OC)c(NC(=O)c2c(-c3ccccc3)noc2C)cc1Cl	inconclusive: 32.6 µM [inhibitor, partial curve, poor fit]	–
COc1ccc(C(C)=O)cc1CSc1nnc(Nc2ccc(C)cc2)s1	inconclusive: 29.1 µM [inhibitor, single point]	–
CC(C)(C)c1ccc(OCC(=O)N/N=C/c2cc(Br)ccc2OC(=O)c2ccco2)cc1	inconclusive: 0.447 µM [inhibitor, full curve, poor fit]	–
COc1ccc(C(C2C(=O)CC(C)(C)CC2=O)C2C(=O)CC(C)(C)CC2=O)cc1COCC(F)(F)F	–	inactive: 18.6%
CC1(C)Cc2c(C#N)c(SCCC#N)nc(N3CCOCC3)c2CO1	–	inactive: 0.381%
CCN(CC)S(=O)(=O)c1ccc(C(=O)NCc2ccc(C)cc2)cc1	–	inactive: -25.7% [at 46.1 µM]
O=C(O)CC1(c2ccccc2)C(=O)c2ccccc2C1=O	–	inactive: 9.85%
C=CCNc1nc(NCc2ccccc2)c(C#N)c2c1CN(C)CC2	inconclusive: 22.4 µM [inhibitor, partial curve, poor fit]	–
CC(C)Cc1nc2oc3c(NCc4cccnc4)ncnc3c2c2c1CCC2	inconclusive: 29.1 µM [inhibitor, single point]	–
Cc1ccc2c(c1)N(CC(=O)N1CCCCCC1)C(=O)CO2	inconclusive: 29.1 µM [inhibitor, single point]	–
COc1ccc(NS(=O)(=O)c2cccc(C(=O)NCCCN3CCOCC3)c2)cc1	inconclusive: 2.82 µM [inhibitor, partial curve, poor fit]	–
O=C(c1ccc(S(=O)(=O)N2CCCCC2)cc1)N1CCN(c2ccccc2F)CC1	inconclusive: 0.651 µM [activator, full curve, poor fit]	–
Cc1cc(C)cc(N(CC(=O)NCc2ccco2)S(=O)(=O)c2ccccc2)c1	inconclusive: 35.5 µM [inhibitor, partial curve, poor fit]	–
COc1ccc(N(C)S(=O)(=O)c2cccc(C(=O)NCc3ccc4c(c3)OCO4)c2)cc1	inconclusive: 10 µM [inhibitor, partial curve, poor fit]	–
Cc1csc(NC(=O)CSc2ncnc3c2cnn3-c2ccccc2Cl)n1	active: 12.6 µM	–
COc1ccc(C2N=C(N)Nc3nc4ccccc4n32)c(OC)c1OC (stereo not drawn)	–	inactive: 6.81% [at 46.1 µM]
O=C(NCc1ccc(Cl)cc1)c1cc2ccccc2oc1=O	–	inactive: 7.01%
CCCCn1c(NC(=O)c2ccccc2Cl)c(C#N)c2nc3ccccc3nc21	active: 20.6 µM	–
Cc1cc(C)cc(-n2c(C)cc(/C=N/NC(=O)c3cccc([N+](=O)[O-])c3C)c2C)c1	inconclusive: 22.4 µM [inhibitor, single point]	–

Reformatted: 3 of the compounds above.
Structure (SMILES),Potency,"activity change, negative = inhibition"
COc1cc(OC)c(NC(=O)c2c(-c3ccccc3)noc2C)cc1Cl,"inconclusive: 32.6 µM [inhibitor, partial curve, poor fit]",–
COc1ccc(C(C2C(=O)CC(C)(C)CC2=O)C2C(=O)CC(C)(C)CC2=O)cc1COCC(F)(F)F,–,inactive: 18.6%
CC1(C)Cc2c(C#N)c(SCCC#N)nc(N3CCOCC3)c2CO1,–,inactive: 0.381%

(more compounds)

Structure (SMILES)	Potency	activity change, negative = inhibition
COc1ccc(OC(=O)CCN2C(=O)C3C4C=CC(C4)C3C2=O)cc1 (stereo not drawn)	inconclusive: 35.5 µM [inhibitor, single point]	–
COc1ccc(Cl)cc1NC(=O)C(C)N1CCc2ccccc21 (stereo not drawn)	inconclusive: 15.8 µM [inhibitor, single point]	–
C(#Cc1ccccc1)C[N+]1(CC#Cc2ccccc2)CCCC1	inconclusive: 11.2 µM [inhibitor, single point]	–
CN(Nc1cccc(Cl)c1)c1cccc(Cl)c1	inconclusive: 12.6 µM [inhibitor, single point]	–
CCC(C)N(C(=O)CSc1nnc(C)n1C)C1CCS(=O)(=O)C1 (stereo not drawn)	–	inactive: 9.97% [at 46.1 µM]
CN(CCNC(=O)CN1CCN(Cc2ccccc2Cl)C1=O)Cc1ccccc1	inconclusive: 8.91 µM [inhibitor, partial curve, poor fit]	–
Cn1cc(CNCc2ccccc2OCC(O)CN2CCc3ccccc3C2)cn1 (stereo not drawn)	inconclusive: 8.91 µM [inhibitor, partial curve, poor fit]	–
Cc1ccc(CNC(=O)C2CCN(S(=O)(=O)Cc3ccccc3)CC2)cc1	–	inactive: 0.489% [at 46.1 µM]
CCN(C(=O)CN1CC=C(c2ccccc2)CC1)c1c(N)n(Cc2ccccc2)c(=O)[nH]c1=O	inconclusive: 35.5 µM [inhibitor, single point]	–
Cc1cc(C)n(CC(=O)N2c3ccccc3Sc3ccc(C(F)(F)F)cc32)n1	inconclusive: 11.2 µM [inhibitor, partial curve, poor fit]	–
Cn1c(=O)[nH]c(=O)c2c1nc(Br)n2CCCCSc1nc2ccccc2o1	inconclusive: 11.6 µM [inhibitor, single point]	–
COc1cc(NC(=O)c2ccccc2)c(OC)cc1NC(=O)CSc1[nH]c(=O)cc(C)c1C#N	inconclusive: 2.82 µM [inhibitor, full curve]	–
CCc1nnc(NC(=O)CSc2nc(-c3ccccc3)nc3ccccc23)s1	inconclusive: 35.5 µM [activator, single point]	–
COCC(=O)N1CCC(Oc2ccc(C(=O)NCCc3ccncc3)cc2)CC1	inconclusive: 4.47 µM [activator, single point]	–
CC1(C)Cc2c(cnn2-c2ccccc2)C(NC(=O)CCCn2cncn2)C1 (stereo not drawn)	–	inactive: -9.95%
N/C(Cc1ccc([N+](=O)[O-])cc1)=N\OC(=O)c1ccc(Br)o1	inconclusive: 2.24 µM [inhibitor, partial curve, poor fit]	–
CS(=O)(=O)c1ccc(Cl)c(NC(=O)COC(=O)c2cccc(S(=O)(=O)N3CCCCC3)c2)c1	–	inactive: 19.2%
Cc1cccc(Nc2nc3ccccc3s2)c1C	inconclusive: 35.5 µM [inhibitor, partial curve, poor fit]	–
Cc1ccc(NC(=O)COc2ccc(-c3nn(C)c(=O)c4ccccc34)cc2)cc1	–	inactive: -19.4% [at 46.1 µM]
CC1=C(C(=O)Nc2ccccc2)C(c2ccco2)C(C#N)=C(SCC(N)=O)N1 (stereo not drawn)	inconclusive: 0.82 µM [inhibitor, full curve, poor fit]	–
COC1=C(C(=O)c2ccccc2)C(=O)[C@@]2(CC=C(C)C)CC(C#N)C[C@@]1(CC=C(C)C)C2=O (stereo partly drawn)	–	inactive: -16.4% [at 14.2 µM]
